No constants are given. Whether binding was seen depends on the method and setting. Binding seen in cells or lysates may run through a third protein. A result given as binding can be weak or reduced; the word gives no strength. For some assays here: Sequences can lack the tags named with a protein.
Columns and labels:
[1] = biological target: Myc-β-catenin full length (UniProt P35222); experiment: co-IP; HEK293 cells co-transfected with 2 µg Myc-β-catenin and Flag-USP8 full-length or mutants, 24 h, NP-40 lysis buffer, IP with Myc antibody, blot with Flag antibody
Flag-USP8 full-length = biological target: T1, Flag-USP8 full-length (UniProt P40818); experiment: co-IP; HEK293 cells co-transfected with 2 µg Flag-USP8 and Myc-β-catenin full length or mutants, 24 h, NP-40 lysis buffer, IP with Flag antibody, blot with Myc antibody
T1 sequence: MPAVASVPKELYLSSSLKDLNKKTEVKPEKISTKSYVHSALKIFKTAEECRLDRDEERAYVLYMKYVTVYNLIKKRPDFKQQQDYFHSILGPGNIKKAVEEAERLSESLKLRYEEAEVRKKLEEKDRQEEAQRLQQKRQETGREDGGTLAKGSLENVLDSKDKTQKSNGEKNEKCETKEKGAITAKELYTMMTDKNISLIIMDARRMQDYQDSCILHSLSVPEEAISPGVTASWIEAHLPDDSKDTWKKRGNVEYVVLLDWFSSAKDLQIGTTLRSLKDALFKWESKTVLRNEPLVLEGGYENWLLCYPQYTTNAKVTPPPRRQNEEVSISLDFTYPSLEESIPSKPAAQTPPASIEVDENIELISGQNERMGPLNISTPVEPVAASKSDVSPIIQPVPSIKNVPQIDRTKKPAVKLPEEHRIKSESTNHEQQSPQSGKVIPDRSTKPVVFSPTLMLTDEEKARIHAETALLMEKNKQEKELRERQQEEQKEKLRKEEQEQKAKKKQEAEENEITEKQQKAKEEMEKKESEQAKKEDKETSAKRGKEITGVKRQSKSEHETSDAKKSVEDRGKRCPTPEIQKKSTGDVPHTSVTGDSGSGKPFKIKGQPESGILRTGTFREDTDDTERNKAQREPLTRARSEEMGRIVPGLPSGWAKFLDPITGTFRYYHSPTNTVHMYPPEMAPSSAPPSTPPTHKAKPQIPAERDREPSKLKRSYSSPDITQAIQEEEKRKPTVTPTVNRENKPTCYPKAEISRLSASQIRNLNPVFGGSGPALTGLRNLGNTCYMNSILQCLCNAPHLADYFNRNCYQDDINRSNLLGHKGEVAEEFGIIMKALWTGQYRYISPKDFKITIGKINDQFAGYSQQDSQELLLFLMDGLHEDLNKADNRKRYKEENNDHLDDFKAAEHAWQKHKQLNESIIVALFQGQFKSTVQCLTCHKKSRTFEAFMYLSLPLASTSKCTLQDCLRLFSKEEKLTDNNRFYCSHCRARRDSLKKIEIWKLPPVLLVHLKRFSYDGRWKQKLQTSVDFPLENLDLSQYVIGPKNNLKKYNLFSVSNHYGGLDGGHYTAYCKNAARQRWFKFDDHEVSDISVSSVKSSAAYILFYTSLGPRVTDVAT

Amino acid sequences for entries named in this document (tags omitted).
UniProt P35222: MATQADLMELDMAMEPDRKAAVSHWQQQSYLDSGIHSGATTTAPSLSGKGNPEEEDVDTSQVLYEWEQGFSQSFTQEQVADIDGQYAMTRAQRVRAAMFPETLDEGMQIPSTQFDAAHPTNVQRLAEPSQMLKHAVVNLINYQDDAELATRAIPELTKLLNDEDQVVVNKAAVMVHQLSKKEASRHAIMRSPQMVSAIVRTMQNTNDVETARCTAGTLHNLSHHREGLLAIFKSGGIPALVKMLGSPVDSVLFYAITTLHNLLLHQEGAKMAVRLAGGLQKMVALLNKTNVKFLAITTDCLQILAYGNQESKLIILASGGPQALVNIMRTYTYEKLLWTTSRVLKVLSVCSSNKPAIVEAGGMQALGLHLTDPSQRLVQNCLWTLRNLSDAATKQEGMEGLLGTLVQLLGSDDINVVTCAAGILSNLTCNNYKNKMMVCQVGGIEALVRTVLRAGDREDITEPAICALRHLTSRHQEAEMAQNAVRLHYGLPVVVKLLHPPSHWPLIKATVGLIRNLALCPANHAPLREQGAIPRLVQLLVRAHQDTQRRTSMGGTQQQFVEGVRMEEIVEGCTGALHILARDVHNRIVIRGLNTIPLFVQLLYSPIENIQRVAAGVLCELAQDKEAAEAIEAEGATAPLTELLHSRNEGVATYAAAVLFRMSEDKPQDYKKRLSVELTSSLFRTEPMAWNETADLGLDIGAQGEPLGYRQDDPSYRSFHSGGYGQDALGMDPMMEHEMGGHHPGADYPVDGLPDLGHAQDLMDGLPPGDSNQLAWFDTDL

| binding [1] | binding (Flag-USP8 full-length) | Substance |
| --- | --- | --- |
| binds |  | Flag-USP8 deletion mutant, USP domain (from UniProt P40818) (domain or fragment) |
|  | binds | Myc-β-catenin deletion mutant, ARM domain (domain or fragment) |
